Assay results: publication PMC12120245
These are yes or no findings as the source states them, for the method shown. In cells and extracts the contact can be indirect. A yes stands for co-enrichment or nearness to the bait. Other partners may have been found.

Protein sequences, listed by entry. Tags and fused reporters are not part of them. Lines headed by an entry give the natural chain unless they say otherwise; changes in a name come on top.
UniProt Q15652: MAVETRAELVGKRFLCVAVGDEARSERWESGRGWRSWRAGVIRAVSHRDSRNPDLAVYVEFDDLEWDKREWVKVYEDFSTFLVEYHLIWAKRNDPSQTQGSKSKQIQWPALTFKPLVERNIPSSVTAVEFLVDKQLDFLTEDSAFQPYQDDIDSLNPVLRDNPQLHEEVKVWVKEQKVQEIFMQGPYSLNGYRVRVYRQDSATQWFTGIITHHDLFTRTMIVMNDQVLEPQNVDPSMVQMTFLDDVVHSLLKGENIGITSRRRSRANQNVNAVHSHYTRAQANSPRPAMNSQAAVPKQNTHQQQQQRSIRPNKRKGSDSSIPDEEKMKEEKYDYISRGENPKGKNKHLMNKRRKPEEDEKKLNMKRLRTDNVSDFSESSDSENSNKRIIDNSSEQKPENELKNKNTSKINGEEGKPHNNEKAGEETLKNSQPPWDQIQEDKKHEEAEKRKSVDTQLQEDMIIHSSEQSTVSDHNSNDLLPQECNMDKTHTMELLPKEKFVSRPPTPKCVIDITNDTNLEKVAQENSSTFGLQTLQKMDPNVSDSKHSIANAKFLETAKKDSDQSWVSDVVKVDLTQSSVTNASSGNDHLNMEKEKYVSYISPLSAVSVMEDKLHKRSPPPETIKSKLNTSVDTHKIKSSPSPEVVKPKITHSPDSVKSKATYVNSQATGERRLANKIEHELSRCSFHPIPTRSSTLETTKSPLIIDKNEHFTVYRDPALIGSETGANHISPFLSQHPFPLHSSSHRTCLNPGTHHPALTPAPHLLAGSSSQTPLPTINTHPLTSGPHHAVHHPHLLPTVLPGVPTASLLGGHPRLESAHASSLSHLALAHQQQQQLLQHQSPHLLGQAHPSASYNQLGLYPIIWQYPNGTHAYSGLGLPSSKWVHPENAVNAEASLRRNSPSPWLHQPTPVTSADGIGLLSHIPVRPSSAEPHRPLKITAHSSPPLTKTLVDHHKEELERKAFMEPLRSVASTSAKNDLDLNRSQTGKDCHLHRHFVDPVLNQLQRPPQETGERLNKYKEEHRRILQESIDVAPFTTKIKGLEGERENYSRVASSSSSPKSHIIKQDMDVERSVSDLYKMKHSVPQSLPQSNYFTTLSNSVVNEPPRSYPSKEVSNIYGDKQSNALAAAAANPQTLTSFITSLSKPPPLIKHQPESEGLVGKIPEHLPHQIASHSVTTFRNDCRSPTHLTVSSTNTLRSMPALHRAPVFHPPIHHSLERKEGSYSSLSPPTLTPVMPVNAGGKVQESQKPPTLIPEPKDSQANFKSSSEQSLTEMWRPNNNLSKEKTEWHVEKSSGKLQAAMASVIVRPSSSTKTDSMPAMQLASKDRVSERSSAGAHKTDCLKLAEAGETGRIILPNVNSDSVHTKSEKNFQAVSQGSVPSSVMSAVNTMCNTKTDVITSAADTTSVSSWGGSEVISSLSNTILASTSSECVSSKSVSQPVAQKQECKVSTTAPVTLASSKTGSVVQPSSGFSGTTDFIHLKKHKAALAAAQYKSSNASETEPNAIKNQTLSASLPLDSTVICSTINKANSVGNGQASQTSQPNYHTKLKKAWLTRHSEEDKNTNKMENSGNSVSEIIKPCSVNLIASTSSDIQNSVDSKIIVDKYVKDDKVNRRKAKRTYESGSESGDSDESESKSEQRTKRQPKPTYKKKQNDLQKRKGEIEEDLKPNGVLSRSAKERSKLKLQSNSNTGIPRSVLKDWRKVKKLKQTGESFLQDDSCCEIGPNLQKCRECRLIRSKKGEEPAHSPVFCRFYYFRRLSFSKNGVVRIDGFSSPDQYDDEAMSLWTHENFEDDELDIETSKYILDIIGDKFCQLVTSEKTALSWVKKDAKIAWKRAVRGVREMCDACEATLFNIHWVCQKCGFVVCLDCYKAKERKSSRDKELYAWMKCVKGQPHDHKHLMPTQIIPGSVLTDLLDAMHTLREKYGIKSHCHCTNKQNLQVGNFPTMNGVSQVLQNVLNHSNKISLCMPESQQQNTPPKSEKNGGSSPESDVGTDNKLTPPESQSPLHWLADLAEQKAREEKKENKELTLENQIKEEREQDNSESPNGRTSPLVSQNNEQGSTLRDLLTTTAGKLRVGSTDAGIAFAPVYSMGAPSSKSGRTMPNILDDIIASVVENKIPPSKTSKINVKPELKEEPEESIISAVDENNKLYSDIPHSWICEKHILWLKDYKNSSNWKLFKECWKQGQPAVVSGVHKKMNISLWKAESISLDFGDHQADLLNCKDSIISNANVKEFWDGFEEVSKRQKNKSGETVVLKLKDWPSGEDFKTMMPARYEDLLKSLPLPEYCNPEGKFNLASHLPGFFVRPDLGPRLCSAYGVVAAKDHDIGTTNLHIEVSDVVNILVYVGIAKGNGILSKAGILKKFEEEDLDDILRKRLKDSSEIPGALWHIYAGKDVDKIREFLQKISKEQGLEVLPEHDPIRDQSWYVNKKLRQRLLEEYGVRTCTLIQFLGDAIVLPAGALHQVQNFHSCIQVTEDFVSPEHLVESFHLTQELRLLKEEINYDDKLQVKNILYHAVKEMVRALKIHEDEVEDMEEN
UniProt Q01196: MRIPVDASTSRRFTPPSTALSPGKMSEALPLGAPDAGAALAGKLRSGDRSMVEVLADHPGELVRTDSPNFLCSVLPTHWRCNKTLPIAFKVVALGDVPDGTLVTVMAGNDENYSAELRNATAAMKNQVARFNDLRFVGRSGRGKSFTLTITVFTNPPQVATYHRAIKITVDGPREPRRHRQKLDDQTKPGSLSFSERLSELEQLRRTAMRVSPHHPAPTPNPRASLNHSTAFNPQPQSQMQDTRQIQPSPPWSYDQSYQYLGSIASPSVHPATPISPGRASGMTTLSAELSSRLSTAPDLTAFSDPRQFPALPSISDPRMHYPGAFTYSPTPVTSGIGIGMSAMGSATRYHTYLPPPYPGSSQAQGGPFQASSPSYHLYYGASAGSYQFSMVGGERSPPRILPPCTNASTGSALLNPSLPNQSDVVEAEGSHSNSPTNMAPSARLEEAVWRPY

Biological target: JMJD1C (Jumonji Domain Containing 1C) (human (endogenous in AML cell lines)) (UniProt Q15652)
Assay: affinity purification with mass spectrometry; IgG or custom-made JMJD1C antibody with nuclear extracts of NB-4, HL-60, Kasumi-1 and MOLM-13 cells; BC150 plus 0.1% Triton X-100, overnight, 4°C; SDS-PAGE, LC-MS/MS

Q: How did the binding turn out when “RUNX1 (AML1) (from UniProt Q01196 1-453)” was run?
A: binds
